PubChem BioAssay AID1259425 | University of Nebraska Medical Center – 2018

- Test: 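Find knockdowns that reproduce the gene expression pattern seen when KSR1 is lost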 (primary screen)
- Cell system: HCT116 human colon cancer cells
- Knock-down reagent: siRNA pool against human genes, 50 nM siRNA
- Read-out: 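After 50 nM siRNA pool, branched-DNA assay measures six marker transcripts per well, minus blank, normalised to the geometric mean of two housekeeping transcripts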
- Reading the numbers: BNIP3L mRNA: higher = more BNIP3L transcript after knockdown
Here is a random part of about 14,000 reagents tested. Further read-outs or replicates are left out here. The record does not give: the time to read-out.

gene symbol	BNIP3L mRNA, set 1
TTLL2 (tubulin tyrosine ligase like 2)	0.301
HDAC7 (histone deacetylase 7)	0.128
ABCC8 (ATP binding cassette subfamily C member 8)	0.207
POLR3E (RNA polymerase III subunit E)	0.226
MGLL (monoglyceride lipase)	0.107
METTL1 (methyltransferase 1, tRNA methylguanosine)	0.18
UPF3A (UPF3A regulator of nonsense mediated mRNA decay)	0.0863
DNASE2B (deoxyribonuclease 2 beta)	0.0477
TMED1 (transmembrane p24 trafficking protein 1)	0.0888
IL18BP (interleukin 18 binding protein)	0.101
SUMO1 (small ubiquitin like modifier 1)	0.143

Continued, starting with the last 2 of the part before.
gene symbol	BNIP3L mRNA, set 1
IL18BP (interleukin 18 binding protein)	0.101
SUMO1 (small ubiquitin like modifier 1)	0.143
CRIP2 (cysteine rich protein 2)	0.315
NEDD9	0.115
ETV1 (ETS variant transcription factor 1)	0.0821
SPRR1A (small proline rich protein 1A)	0.19
TOM1L1 (target of myb1 like 1 membrane trafficking protein)	0.115
SNX13 (sorting nexin 13)	0.109
RAB4A (RAB4A, member RAS oncogene family)	0.164
BMS1 (BMS1 ribosome biogenesis factor)	0.151
NCOR1 (nuclear receptor corepressor 1)	0.108
